## Results of single-concentration screens

The values are deposited in ChEMBL (CHEMBL3988442, “University of Dundee, Small-Polar-MMV Screening Library” (2021)).

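Cell assay of Leishmania donovani living inside macrophages; the read-out is not stated. Concentration: 30 µM. The record gives no direction; compounds that gave an IC50 in retests scored well above the rest, so higher reads as stronger inhibition. Size under these conditions: about 69,000 compounds, about 1,000 of them at 50% or above in at least one test.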

Results are given as percent effect. The controls that fix the scale are not given in the record; negative values are as filed. This is an unselected part of the compounds tested. Two or more numbers in one place are separate tests of the same structure; such repeats can differ widely.

Compound	percent effect
[H][C@@]12CN(Cc3cccc(Cl)c3)CC[C@]1([H])N(C(C)=O)C[C@H]2c1ccsc1	24.01
Fc1cccc(CN2CCOC3(COCCN(CC4CC4)C3)C2)c1.O=C(O)C(F)(F)F.O=C(O)C(F)(F)F (stereo not shown)	31.48
COc1ccccc1CN(C)C(=O)CN1C(=O)OC[C@@H]1c1ccccc1	-3.572
O=C(c1cc2c(s1)CCC2)N1CCN(c2cnccn2)CC1	35.88
O=S1(=O)CCC(n2cc(CNCC3(c4ccccc4)CC3)cn2)C1 (stereo not shown)	1.345
[H][C@@]12CN(C(=O)c3cc(=O)[nH]c4ccc(F)cc34)C[C@]1([H])[C@H]2CN(C)C	55.47
CCN1CC2(CC1=O)CN(Cc1ccncc1)CCN(C(=O)C(C)C)C2.O=C(O)C(F)(F)F.O=C(O)C(F)(F)F (stereo not shown)	17.44
CCCN(CC(=O)OC)S(=O)(=O)c1cnc2c(c1)c(C)nn2C	29.66
Cn1c2c(c(=O)n1C)CN(C(=O)c1ccsc1)CCC2	39.17 & 10.57
CN1CCC(N2CCC(C(=O)N(C)C)CC2)CC1.O=C(O)C(F)(F)F.O=C(O)C(F)(F)F	15.52
CC(NCc1cnc(C2CCC2)s1)c1ccccc1-n1cccn1 (stereo not shown)	9.335
CCSc1ncc(CN2CC[C@@](O)(COC)C(C)(C)C2)cn1	-31.06
CCc1nc(CN2CCCC(N(C)Cc3cnn(C)c3)C2)no1 (stereo not shown)	9.057
Cc1cc(NC(=O)CN2CCCC2c2noc(C3CC3)n2)no1 (stereo not shown)	6.193
CCCNC(=O)c1cn(C(C)(C)C)c2ncccc12	9.041
O=C(NCCNc1ncccn1)C1CCN(C(=O)NC2CC2)CC1	25.68
NC(=O)NC(CC(=O)N1CCc2sccc2C1)c1ccccc1F (stereo not shown)	25.48
Cc1oc(-c2ccsc2)nc1CC(=O)NCCCS(C)(=O)=O	17.14
O=C(NCCC1CCN(CC(F)(F)F)CC1)C1CCCO1 (stereo not shown)	-8.432
OCCN1CCN(Cc2cc3c(cc2Br)OCCO3)CC1	19.45
O=C(CC1CCCC1)N1CCCC(c2n[nH]c3nccnc23)C1 (stereo not shown)	25.08
CCn1nc(C)c2nc(C(C)C)nc(N3CCC(O)CC3)c21	27.21
Cc1cccc(NC(=O)Cn2nc3ccccn3c2=O)c1C	7.022
CN(Cc1cccs1)C(=O)CN1CCCC1Cn1cncn1 (stereo not shown)	-9.419
Cc1ccc(CN2CCN(c3ncccc3Cl)CC2CCO)cc1 (stereo not shown)	-19.98
COc1cc(N2CCC(c3nccn3Cc3cccnc3)CC2)ncn1	-6.205
Cc1nc(CN(C)C2CCN(CC3CCC3)C2)no1 (stereo not shown)	11.14
COC(=O)c1cc2n(n1)CCCN(C(=O)Cc1c[nH]c3ccccc13)C2	-8.328
CCC1CCCCN1CCc1ccncc1 (stereo not shown)	-10.51
CC(C)N1CCc2ncn(C(C)C)c2C1C(=O)N1CCN(C)CC1 (stereo not shown)	-1.309
CCc1nc(N)sc1C(=O)N1CCCC(CCc2ccccc2C)C1 (stereo not shown)	59.23
Cc1nc(CN2CCCC(N(C)CCc3cccs3)C2)no1 (stereo not shown)	22.06
Cc1ccccc1OC1CCN(S(=O)(=O)c2c(C)n[nH]c2C)CC1	12.44
CNS(=O)(=O)c1ccc(CNC(=O)c2cc(C)no2)cc1	19.45
Cc1cc(C(=O)O)cc(S(=O)(=O)Nc2ccc3c(c2)OCO3)c1C	16.32
[H][C@@]12CS(=O)(=O)C[C@]1([H])N(Cc1cc(C)cc(C)c1)CCN2C(=O)C1CCC1	3.284
Cc1nc(O)c2nnn(C[C@H]3CCCN3C(=O)c3cccc(F)c3)c2n1	9.482
CC1N(c2cnn(C)c2)C(=O)COC12CCN(Cc1ccoc1)CC2 (stereo not shown)	43.51
COc1cccc(OCc2cc(C(=O)NC[C@H]3CCCN3)n[nH]2)c1	1.314
CCCc1cc(C(=O)NCCN2C(=O)c3ccccc3C2=O)[nH]n1	18.52
CN(Cc1noc(C2CC2)n1)C1CCN(Cc2ncc[nH]2)C1 (stereo not shown)	-7.378
COc1cccc(C(=O)NC(CC(=O)O)c2cccs2)c1OC (stereo not shown)	21.74
Cc1ncc(Cl)c(C(=O)N2CC(=O)N(C)c3ccccc32)n1	-1.211
Cc1nc(CC(=O)N2CCCC2c2nc(-c3ccccc3)no2)cs1 (stereo not shown)	15.61
[H][C@@]12CN(C(=O)N(C)C)C[C@@]1([H])N(CC(C)C)C(=O)CO2	-9.027 & -2.389
O=C(O)C(F)(F)F.[H][C@@]12CCN(C3CCC3)C[C@]1(C(=O)NCc1ccco1)CCO2	12.74
O=C(c1cnc(-c2ccccn2)s1)N1CCCC(n2cccn2)C1 (stereo not shown)	-24.46
CN1CCN(c2ncc3c(=O)n(-c4cccc(F)c4)c(=O)[nH]c3n2)CC1	19.86
O=C1CC(c2ccc(Cl)c(Cl)c2)c2c(n3ccsc3nc2=O)N1 (stereo not shown)	-14.44
Cc1ccc(-c2nc(CN3C[C@@H](C)NC[C@@H]3C)c(C)o2)s1	19.75
O=S(=O)(NCC1COCCO1)c1ccc(C2CCCCC2)cc1 (stereo not shown)	15.81
Cc1nc(CC(=O)N2CCN(c3ccc(N(C)C)cc3)CC2)cs1	-9.473
Cn1cccc(NC(=O)N2CCC(Cc3ccccc3)C2)c1=O (stereo not shown)	-0.3268
O=C(O)C(F)(F)F.O=C(O)C(F)(F)F.O=C(O)C(F)(F)F.O=C(O)c1c(-c2cncnc2)ncc2c1CCN(Cc1cccnc1)C2	8.403
[H][C@]12CO[C@@H](CNS(C)(=O)=O)[C@@]1([H])CCN(C(=O)c1cccn1C)C2	19.01
CC(C)n1ccc2c(C(=O)NC3CN4CCC3CC4)cccc21 (stereo not shown)	0.7987
Cc1ccc(S(=O)(=O)N2CCc3ccc(F)cc32)cc1C(=O)O	31.64
c1ccc(CCN2CCCC(c3noc(C4CC4)n3)C2)cc1 (stereo not shown)	-41.46
CCC(NC(=O)NCc1ccoc1C)c1c(C)nn(C)c1C (stereo not shown)	18.62
Cc1cc(CN(C)C(=O)c2cccc(N3CCCS3(=O)=O)c2)no1	19.75
COCC(=O)N1CCC(c2cc(-c3ccc(N)nc3)cc(C)n2)CC1	-1.405
O=C(NCC1CCOC1)c1csc(-c2ccc(Cl)cc2)n1 (stereo not shown)	22.03
c1cc2cc[nH]c2c(CC2CN(Cc3cncs3)C2)n1	-24.08
CC(C)Cc1cc(C(=O)NCc2nnc[nH]2)[nH]n1	-3.726
O=C(O)C(F)(F)F.[H][C@]12CCN(C(=O)CC(C)(C)C)CC[C@@]1([H])S(=O)(=O)CCN2C	1.513
Cn1c(CN2CCOCC2)nnc1C1CCN(C(=O)C2CCCC2)CC1	-19.02

Once more, the final 7:

| Compound | percent effect |
|---|---|
| `Cc1cc(CN(C)C(=O)c2cccc(N3CCCS3(=O)=O)c2)no1` | 19.75 |
| `COCC(=O)N1CCC(c2cc(-c3ccc(N)nc3)cc(C)n2)CC1` | -1.405 |
| `O=C(NCC1CCOC1)c1csc(-c2ccc(Cl)cc2)n1` (stereo not shown) | 22.03 |
| `c1cc2cc[nH]c2c(CC2CN(Cc3cncs3)C2)n1` | -24.08 |
| `CC(C)Cc1cc(C(=O)NCc2nnc[nH]2)[nH]n1` | -3.726 |
| `O=C(O)C(F)(F)F.[H][C@]12CCN(C(=O)CC(C)(C)C)CC[C@@]1([H])S(=O)(=O)CCN2C` | 1.513 |
| `Cn1c(CN2CCOCC2)nnc1C1CCN(C(=O)C2CCCC2)CC1` | -19.02 |